The results in this text go back to publication PMC10012460.

Chains of the proteins cited; added tags and fusions are not shown.
UniProt Q9Z1E3: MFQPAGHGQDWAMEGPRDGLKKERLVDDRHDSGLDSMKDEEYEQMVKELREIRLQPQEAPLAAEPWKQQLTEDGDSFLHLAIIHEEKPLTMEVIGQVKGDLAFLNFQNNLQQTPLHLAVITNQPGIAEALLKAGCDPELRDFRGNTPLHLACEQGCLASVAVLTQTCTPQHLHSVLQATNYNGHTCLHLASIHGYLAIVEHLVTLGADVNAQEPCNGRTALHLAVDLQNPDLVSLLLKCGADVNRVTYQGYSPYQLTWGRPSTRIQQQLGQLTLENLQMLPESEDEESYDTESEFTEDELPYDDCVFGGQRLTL

These are yes or no findings as the source states them, for the method shown. Binding seen in cells or lysates may run through a third protein. A yes stands for co-enrichment or nearness to the bait. Other partners may have been found.

For this test, the target named is T1, Ubiquitin-specific protease 13 (USP13), endogenous in BV2 microglia (mouse (endogenous in BV2)) (UniProt Q5BKP2).
T1 sequence: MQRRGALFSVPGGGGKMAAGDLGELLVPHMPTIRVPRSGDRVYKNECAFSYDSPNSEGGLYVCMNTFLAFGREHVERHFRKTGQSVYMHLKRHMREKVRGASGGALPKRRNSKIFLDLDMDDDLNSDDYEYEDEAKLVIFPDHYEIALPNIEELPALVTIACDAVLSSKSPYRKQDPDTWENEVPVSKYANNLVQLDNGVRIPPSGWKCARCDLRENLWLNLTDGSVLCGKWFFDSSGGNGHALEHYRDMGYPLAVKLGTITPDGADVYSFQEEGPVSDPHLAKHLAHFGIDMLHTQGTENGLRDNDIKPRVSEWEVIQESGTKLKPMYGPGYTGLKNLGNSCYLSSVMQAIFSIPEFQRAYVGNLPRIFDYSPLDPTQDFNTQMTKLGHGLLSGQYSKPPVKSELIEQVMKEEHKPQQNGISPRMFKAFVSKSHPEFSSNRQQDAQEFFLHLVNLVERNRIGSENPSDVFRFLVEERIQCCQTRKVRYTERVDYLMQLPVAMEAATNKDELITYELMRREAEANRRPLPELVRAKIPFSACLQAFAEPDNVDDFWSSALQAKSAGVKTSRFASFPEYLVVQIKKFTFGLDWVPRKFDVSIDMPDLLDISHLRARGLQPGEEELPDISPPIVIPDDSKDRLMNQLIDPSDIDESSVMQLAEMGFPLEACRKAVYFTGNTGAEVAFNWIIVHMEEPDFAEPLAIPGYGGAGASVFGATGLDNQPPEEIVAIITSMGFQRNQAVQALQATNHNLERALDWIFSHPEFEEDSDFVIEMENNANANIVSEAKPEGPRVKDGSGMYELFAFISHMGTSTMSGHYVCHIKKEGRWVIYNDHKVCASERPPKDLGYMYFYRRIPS
Kind of test: affinity purification with mass spectrometry; IP coupled with mass spectrum (IP/MS) to find proteins that interact with USP13; in microglia (by the discussion).

In the case of “NF-κB inhibitor alpha (IκBα), endogenous in BV2 microglia (from UniProt Q9Z1E3 1-314)”, the binding result was “binds”.
